The list shows only some results of the screen, not a fair sample: it gathers tests that were run many times, whatever their T/C, doses with no T/C, and many T/C values between a quarter and a half above the control. Further doses and runs are listed elsewhere. T/C is the treated group as % of the vehicle group. Some doses have a count of surviving animals in place of a T/C: the source holds a T/C of zero for them, seemingly a mark for toxic or unscored doses. Some doses without a T/C left all or most animals alive at the check, yet need not have been tolerated: the source hardly ever lists a survival T/C far under the control, and the zero likely stands for such cases as well. Survivors were counted at the toxicity check, usually on the fifth day, unless a day is given; later deaths do not show. Schedules are NCI's codes, taken here to give the interval after Q, in days (D) or hours (H), and the number of doses after X. For survival time, the PubChem record calls one and a half times the control and up active, and a quarter to a half above the control has no call in these data; cut-offs in other NCI protocols can differ. Some T/C values carry the count of animals alive at the toxicity check (mostly the fifth day); where none is given, no animal had died by that day. Some entries were tested several times; their values stand side by side, smallest first.
Tested on: CD2F1 mice, L1210 leukemia ip, survival T/C
Test: NCI In Vivo Anticancer Drug Screen. Data for tumor model L1210 Leukemia (intraperitoneal) in CD2F1 (CDF1) mice
Conditions: higher T/C = longer survival
Method in brief: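 Activity against a transplanted murine tumor was judged by comparing the compound group with a vehicle group. The outcome in the treated animals was divided by that in the controls.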

[1] = T/C endpoint: mean survival time, dose: 64.0 mg/kg/injection, schedule: Q01DX009 (ip), vehicle: saline
[2] = T/C endpoint: mean survival time, dose: 64.0 mg/kg/injection, schedule: Q04DX003 (ip), vehicle: saline with Tween-80
[3] = T/C endpoint: mean survival time, dose: 128.0 mg/kg/injection, schedule: Q01DX009 (ip), vehicle: Klucel (hydroxypropylcellulose) (HPC)
[4] = T/C endpoint: mean survival time, dose: 128.0 mg/kg/injection, schedule: Q04DX003 (ip), vehicle: saline with Tween-80
[5] = T/C endpoint: mean survival time, dose: 256.0 mg/kg/injection, schedule: Q01DX001 (ip), vehicle: saline with Tween-80

COC(=O)C12OCC34C(CC5C(C)C6=CC(=O)OC6=CC5(C)C3C(O)C1O)OC(=O)C(O)C24 (stereo unspecified)
T/C (T/C endpoint: median survival time, dose: 0.43 mg/kg/injection, schedule: Q01DX005 (ip), vehicle: Klucel (hydroxypropylcellulose) (HPC)): 135 % of control
T/C (T/C endpoint: median survival time, dose: 0.72 mg/kg/injection, schedule: Q01DX005 (ip), vehicle: Klucel (hydroxypropylcellulose) (HPC)): 143 % of control
T/C (T/C endpoint: median survival time, dose: 1.0 mg/kg/injection, schedule: Q01DX005 (ip), vehicle: Klucel (hydroxypropylcellulose) (HPC)): 127 % of control
T/C (T/C endpoint: median survival time, dose: 1.2 mg/kg/injection, schedule: Q01DX005 (ip), vehicle: Klucel (hydroxypropylcellulose) (HPC)): 125 % of control
T/C (T/C endpoint: median survival time, dose: 2.0 mg/kg/injection, schedule: Q01DX005 (ip), vehicle: Klucel (hydroxypropylcellulose) (HPC)): 128 and 130 % of control [5 of 6 alive]
T/C (T/C endpoint: median survival time, dose: 3.33 mg/kg/injection, schedule: Q01DX005 (ip), vehicle: Klucel (hydroxypropylcellulose) (HPC)): 142 % of control
survivor count (T/C endpoint: median survival time, dose: 4.0 mg/kg/injection, schedule: Q01DX005 (ip), vehicle: Klucel (hydroxypropylcellulose) (HPC)): 3 of 6

CCOC(=O)C(CC(C)C)NC(=O)C(Cc1ccc(N(CCCl)CCCl)cc1)NC(C)=O (stereo unspecified)
T/C (T/C endpoint: mean survival time, dose: 32.0 mg/kg/injection, schedule: Q01DX009 (ip), vehicle: Klucel (hydroxypropylcellulose) (HPC)): 130 % of control
T/C (T/C endpoint: mean survival time, dose: 32.0 mg/kg/injection, schedule: Q01DX009 (ip), vehicle: saline, evaluated on day 30): 128 % of control
T/C (T/C endpoint: mean survival time, dose: 32.0 mg/kg/injection, schedule: Q01DX009 (ip), vehicle: saline, evaluated on day 45): 138 % of control
T/C (T/C endpoint: mean survival time, dose: 32.0 mg/kg/injection, schedule: Q04DX003 (ip), vehicle: saline with Tween-80): 127 % of control
T/C (T/C endpoint: mean survival time, dose: 64.0 mg/kg/injection, schedule: Q01DX001 (ip), vehicle: saline with Tween-80): 132 % of control
T/C (T/C endpoint: mean survival time, dose: 64.0 mg/kg/injection, schedule: Q01DX009 (ip), vehicle: Klucel (hydroxypropylcellulose) (HPC)): 125 % of control
T/C [1]: 141 % of control
survivor count [1]: 3 of 6
T/C [2]: 133 % of control [5 of 6 alive]
survivor count [2]: 6 of 6
T/C (T/C endpoint: mean survival time, dose: 64.0 mg/kg/injection, schedule: Q04DX003 (ip), vehicle: saline): 133 % of control
T/C (T/C endpoint: mean survival time, dose: 128.0 mg/kg/injection, schedule: Q01DX001 (ip), vehicle: saline with Tween-80): 140 % of control
T/C (T/C endpoint: mean survival time, dose: 128.0 mg/kg/injection, schedule: Q01DX001 (ip), vehicle: saline): 138 % of control
T/C [3]: 130 % of control
survivor count [3]: 1 of 6
T/C [4]: 127 and 142 % of control
survivor count [4]: 4 of 6
T/C [5]: 132 % of control
survivor count [5]: 2 of 6
survivor count (T/C endpoint: mean survival time, dose: 256.0 mg/kg/injection, schedule: Q01DX009 (ip), vehicle: saline): 4 of 10
survivor count (T/C endpoint: mean survival time, dose: 256.0 mg/kg/injection, schedule: Q04DX003 (ip), vehicle: saline with Tween-80): 2 of 6
survivor count (T/C endpoint: mean survival time, dose: 512.0 mg/kg/injection, schedule: Q01DX001 (ip), vehicle: saline): 3 of 10
survivor count (T/C endpoint: mean survival time, dose: 512.0 mg/kg/injection, schedule: Q04DX003 (ip), vehicle: saline with Tween-80): 0 of 6
survivor count (T/C endpoint: mean survival time, dose: 512.0 mg/kg/injection, schedule: Q04DX003 (ip), vehicle: saline): 3 of 10
survivor count (T/C endpoint: mean survival time, dose: 1024.0 mg/kg/injection, schedule: Q01DX001 (ip), vehicle: saline): 1 of 10

NC(N)=NS(=O)(=O)c1ccc(NCc2c3ccccc3nc3ccccc23)cc1
T/C (T/C endpoint: median survival time, dose: 100.0 mg/kg/injection, schedule: Q01DX005 (ip), vehicle: Klucel (hydroxypropylcellulose) (HPC)): 143 % of control
T/C (T/C endpoint: median survival time, dose: 288.0 mg/kg/injection, schedule: Q01DX005 (ip), vehicle: Klucel (hydroxypropylcellulose) (HPC)): 141 % of control

COc1ccc(C=C2C(=O)C=CC2=O)cc1OC
survivor count (T/C endpoint: mean survival time, dose: 20.0 mg/kg/injection, schedule: Q04DX002 (ip), vehicle: saline with Tween-80): 0 of 3
survivor count (T/C endpoint: mean survival time, dose: 100.0 mg/kg/injection, schedule: Q04DX002 (ip), vehicle: saline with Tween-80): 0 of 3
survivor count (T/C endpoint: mean survival time, dose: 200.0 mg/kg/injection, schedule: Q04DX002 (ip), vehicle: saline with Tween-80): 0 of 3
survivor count (T/C endpoint: mean survival time, dose: 400.0 mg/kg/injection, schedule: Q04DX002 (ip), vehicle: saline with Tween-80): 0 of 3

CSc1nnc(SC)c(SC)n1
survivor count (T/C endpoint: mean survival time, dose: 150.0 mg/kg/injection, schedule: Q01DX001 (ip), vehicle: saline): 2 of 6
survivor count (T/C endpoint: mean survival time, dose: 300.0 mg/kg/injection, schedule: Q01DX001 (ip), vehicle: saline): 0 of 6

CCC(Cc1ccccc1Br)C1=NC(C)(C)CO1 (stereo unspecified)
survivor count (T/C endpoint: mean survival time, dose: 400.0 mg/kg/injection, schedule: Q01DX001 (ip), vehicle: acetone): 2 of 6

From PubChem BioAssay AID256 (DTP/NCI, 2004)
